{"source": "patent US8076285B2", "about": "(Aicuris GmbH & Co. KG, priority 2006, dated 2011)", "key": {"[1]": {"experiment": "general procedure: Fmoc solid-phase peptide synthesis; chlorotrityl resin; TBTU/DIEA", "settings": "whole synthesis, trifluoroacetate"}, "[2]": {"experiment": "general procedure: Fmoc solid-phase peptide synthesis; 2-chlorotrityl chloride resin (Iris Biotech), 0.85 mmol/g; TBTU/DIEA", "settings": "for step yield: late stage modification step"}, "[3]": {"settings": "cyclisation step, trifluoroacetate"}}}
{"substance": "[(3R)-N^2-(tert-Butoxycarbonyl)-3-hydroxy-L-leucyl]-L-leucyl-[N^5-(benzyloxycarbonyl)-D-ornithyl]-L-isoleucyl-[O^3-(tert-butyl)-L-allothreonyl]-glycyl-[N^4-trityl-L-asparaginyl]-[O^3-(tert-butyl)-L-serine]", "values": [{"measurement": "isolated yield", "setting": "[1]", "value": "28.3% of theory"}]}
{"substance": "[(3R)-3-Amino-L-phenylalanyl]-[(3R)-3-hydroxy-L-leucyl]-L-leucyl-D-arginyl-L-isoleucyl-L-allothreonyl-glycyl-[(3S)-3-hydroxy-L-asparaginyl]-L-alanine C^1.9-N^3.1-lactam bishydrochloride", "values": [{"measurement": "step yield", "setting": "[2]; bishydrochloride", "value": "97% of theory"}]}
{"substance": "[3-tert-Butyl-D-alanyl]-[3-tert-butyl-L-alanyl]-[(3R)-3-amino-L-phenylalanyl]-[(3R)-3-hydroxy-L-leucyl]-L-norvalyl-D-arginyl-L-isoleucyl-L-allothreonyl-glycyl-L-seryl-L-serine C^1.11-N^3.3-lactam", "values": [{"measurement": "step yield", "setting": "[2]; from compound 446A, trifluoroacetate", "value": "27% of theory"}]}
{"substance": "[(3R)-N^2-(tert-Butoxycarbonyl)-3-hydroxy-L-leucyl]-L-leucyl-D-arginyl-L-isoleucyl-L-allothreonyl-glycyl-L-threonyl-L-serine bistrifluoroacetate", "values": [{"measurement": "step yield", "setting": "[2]; trifluoroacetate", "value": "98% of theory"}]}
{"substance": "[(3R)-N^2-(Benzyloxycarbonyl)-3-amino-3-(pyridin-3-yl)-L-alanyl]-[(3R)-3-hydroxy-L-leucyl]-L-leucyl-D-arginyl-L-isoleucyl-L-allothreonyl-glycyl-[(3R)-3-hydroxy-L-asparaginyl]-L-serine C^1.9-N^3.1-lactam bis-trifluoroacetate", "values": [{"measurement": "cyclisation yield", "setting": "[2]; [3]", "value": "61% of theory"}]}
{"substance": "[3-tert-Butyl-D-alanyl]-[3-tert-butyl-L-alanyl]-[(3R)-3-amino-L-phenylalanyl]-[(3R)-3-hydroxy-L-leucyl]-L-leucyl-D-arginyl-L-phenylalanyl-L-allothreonyl-glycyl-L-seryl-L-serine C^1.11-N^3.3-lactam", "values": [{"measurement": "step yield", "setting": "[2]; from compound 442A, trifluoroacetate", "value": "67% of theory"}]}
{"substance": "[(3R)-N^2-(Benzyloxycarbonyl)-3-amino-L-phenylalanyl]-[(3R)-3-hydroxy-L-leucyl]-L-leucyl-D-arginyl-L-isoleucyl-L-allothreonyl-D-alanyl-[(3S)-3-hydroxy-L-asparaginyl]-L-serine C^1.9-N^3.1-lactam trifluoroacetate", "values": [{"measurement": "cyclisation yield", "setting": "[2]; [3]", "value": "48% of theory"}, {"measurement": "final purity (method not given)", "setting": "[2]; [3]", "value": "approx. 34% pure"}]}
